# Laboratory results from patent US20200392147.
# The chains behind the UniProt entries cited, without tags or fusion partners.
# UniProt P10630, whole entry: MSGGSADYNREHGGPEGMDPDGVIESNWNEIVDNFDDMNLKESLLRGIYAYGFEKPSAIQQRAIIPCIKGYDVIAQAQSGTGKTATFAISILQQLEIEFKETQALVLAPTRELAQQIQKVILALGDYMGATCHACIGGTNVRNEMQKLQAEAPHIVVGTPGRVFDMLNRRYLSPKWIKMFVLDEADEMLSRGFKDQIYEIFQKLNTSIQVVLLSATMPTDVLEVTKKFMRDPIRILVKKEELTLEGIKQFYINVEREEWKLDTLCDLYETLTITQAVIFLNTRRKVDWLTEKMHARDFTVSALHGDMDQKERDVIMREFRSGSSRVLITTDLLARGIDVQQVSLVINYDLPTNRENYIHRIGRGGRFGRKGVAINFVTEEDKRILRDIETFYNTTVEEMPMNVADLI
# UniProt P60843, whole entry: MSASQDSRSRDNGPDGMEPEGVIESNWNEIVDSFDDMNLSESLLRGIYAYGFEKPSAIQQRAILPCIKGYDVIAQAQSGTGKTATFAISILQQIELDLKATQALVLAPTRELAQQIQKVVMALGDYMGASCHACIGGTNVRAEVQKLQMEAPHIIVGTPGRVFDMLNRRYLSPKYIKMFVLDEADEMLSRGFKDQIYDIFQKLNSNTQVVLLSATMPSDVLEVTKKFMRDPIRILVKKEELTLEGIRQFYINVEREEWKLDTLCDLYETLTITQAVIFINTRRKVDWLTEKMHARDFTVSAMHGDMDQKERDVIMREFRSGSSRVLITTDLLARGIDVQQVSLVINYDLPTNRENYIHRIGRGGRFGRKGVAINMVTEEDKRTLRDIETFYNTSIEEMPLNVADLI
# Key:
# eIF4A2 = eIF4A2 (UniProt P10630); assay: FP; conditions: purified recombinant protein; protein details: His6 (pET15b, E. coli BL21(DE3)); label: FAM
# eIF4A1 = eIF4A1 (UniProt P60843); assay: FP; conditions: purified recombinant protein; protein details: His6 (pET15b, E. coli BL21(DE3)); label: FAM
Sequence,binding result (eIF4A2),binding result (eIF4A1)
AAAAAAAAAAAAAAAA [poly r(A)16],binds more weakly,binds more weakly
CCCCCCCCCCCCCCCC [poly r(C)16],binds more weakly,binds more weakly
UCUCUCUCUCUCUCUC [poly r(UC)8],binds more weakly,binds more weakly

# Weaker means in comparison with the reference protein, sequence or condition of that experiment.
